Read-outs that look alike come from different tables or passages of the source. No constants are given. Whether binding was seen depends on the method and setting. Binding seen in cells or lysates may run through a third protein. Some results given as binding are weak or reduced against the parent protein; the word gives no strength. Where a sequence is shown, tags or fusion partners need not be part of it.
T1: Flag-tagged full-length TMEM132A (FL T132A-Flag) (mouse) (UniProt Q922P8)
T1 sequence: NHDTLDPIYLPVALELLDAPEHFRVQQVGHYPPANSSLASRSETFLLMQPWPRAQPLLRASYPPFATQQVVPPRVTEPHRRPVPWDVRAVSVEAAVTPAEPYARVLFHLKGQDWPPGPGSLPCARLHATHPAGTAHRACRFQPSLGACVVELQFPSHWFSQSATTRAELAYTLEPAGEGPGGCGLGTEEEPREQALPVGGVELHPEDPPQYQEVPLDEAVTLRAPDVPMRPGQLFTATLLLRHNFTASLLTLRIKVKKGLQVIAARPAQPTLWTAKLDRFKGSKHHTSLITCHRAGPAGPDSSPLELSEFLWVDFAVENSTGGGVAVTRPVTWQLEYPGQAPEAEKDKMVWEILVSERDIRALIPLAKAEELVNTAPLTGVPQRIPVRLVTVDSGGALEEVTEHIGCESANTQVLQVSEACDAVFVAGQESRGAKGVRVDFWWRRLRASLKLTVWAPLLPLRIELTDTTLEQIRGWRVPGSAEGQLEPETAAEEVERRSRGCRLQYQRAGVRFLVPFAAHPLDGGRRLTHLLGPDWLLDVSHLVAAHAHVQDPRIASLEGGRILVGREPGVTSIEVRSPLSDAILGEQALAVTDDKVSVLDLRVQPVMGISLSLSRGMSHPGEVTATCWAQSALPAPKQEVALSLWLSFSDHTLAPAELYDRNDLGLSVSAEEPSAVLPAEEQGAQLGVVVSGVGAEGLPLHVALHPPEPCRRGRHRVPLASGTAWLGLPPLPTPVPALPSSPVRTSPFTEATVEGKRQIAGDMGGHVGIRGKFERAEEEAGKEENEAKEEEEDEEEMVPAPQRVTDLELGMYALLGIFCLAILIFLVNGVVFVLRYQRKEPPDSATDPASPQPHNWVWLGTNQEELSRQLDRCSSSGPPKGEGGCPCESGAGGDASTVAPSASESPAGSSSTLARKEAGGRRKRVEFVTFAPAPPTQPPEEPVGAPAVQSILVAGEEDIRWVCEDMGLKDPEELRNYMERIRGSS

The chains behind the UniProt entries cited, without tags or fusion partners. Residues count along the entry.
UniProt P27467, residues 19-352: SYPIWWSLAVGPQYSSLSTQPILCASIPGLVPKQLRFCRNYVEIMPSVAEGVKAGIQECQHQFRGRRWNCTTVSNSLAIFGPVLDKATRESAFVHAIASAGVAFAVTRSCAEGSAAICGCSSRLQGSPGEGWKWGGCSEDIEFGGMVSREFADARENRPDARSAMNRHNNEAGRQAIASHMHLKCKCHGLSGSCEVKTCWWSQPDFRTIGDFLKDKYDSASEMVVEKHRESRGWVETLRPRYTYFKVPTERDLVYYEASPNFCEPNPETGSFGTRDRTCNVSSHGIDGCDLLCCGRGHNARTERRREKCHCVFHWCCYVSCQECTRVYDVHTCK

T2: FL Myc-tagged WLS (WLS-Myc) (mouse) (UniProt Q6DID7)
T2 sequence: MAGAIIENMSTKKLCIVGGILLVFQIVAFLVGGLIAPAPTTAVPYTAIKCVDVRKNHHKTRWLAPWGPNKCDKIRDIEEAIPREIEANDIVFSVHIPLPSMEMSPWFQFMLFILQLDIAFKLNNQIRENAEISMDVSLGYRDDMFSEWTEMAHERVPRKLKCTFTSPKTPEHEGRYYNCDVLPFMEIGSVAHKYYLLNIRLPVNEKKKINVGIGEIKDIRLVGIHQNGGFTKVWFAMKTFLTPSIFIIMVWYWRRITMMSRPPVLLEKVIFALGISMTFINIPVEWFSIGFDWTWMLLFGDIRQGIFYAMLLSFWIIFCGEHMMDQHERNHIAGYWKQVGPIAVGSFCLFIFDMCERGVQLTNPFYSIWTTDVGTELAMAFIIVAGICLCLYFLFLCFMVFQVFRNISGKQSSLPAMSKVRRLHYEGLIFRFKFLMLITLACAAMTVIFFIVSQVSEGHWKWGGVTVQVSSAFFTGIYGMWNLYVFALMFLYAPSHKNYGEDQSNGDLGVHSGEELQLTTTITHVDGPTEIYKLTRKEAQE

T3: STC truncation of T132A-Flag (mouse) (UniProt Q922P8)
T3 sequence: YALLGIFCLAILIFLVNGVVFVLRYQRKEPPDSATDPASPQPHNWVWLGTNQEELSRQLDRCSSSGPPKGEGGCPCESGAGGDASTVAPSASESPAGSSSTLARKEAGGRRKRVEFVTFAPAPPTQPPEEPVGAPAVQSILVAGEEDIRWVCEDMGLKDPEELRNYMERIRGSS

T4: SNT truncation of T132A-Flag (mouse) (UniProt Q922P8)
T4 sequence: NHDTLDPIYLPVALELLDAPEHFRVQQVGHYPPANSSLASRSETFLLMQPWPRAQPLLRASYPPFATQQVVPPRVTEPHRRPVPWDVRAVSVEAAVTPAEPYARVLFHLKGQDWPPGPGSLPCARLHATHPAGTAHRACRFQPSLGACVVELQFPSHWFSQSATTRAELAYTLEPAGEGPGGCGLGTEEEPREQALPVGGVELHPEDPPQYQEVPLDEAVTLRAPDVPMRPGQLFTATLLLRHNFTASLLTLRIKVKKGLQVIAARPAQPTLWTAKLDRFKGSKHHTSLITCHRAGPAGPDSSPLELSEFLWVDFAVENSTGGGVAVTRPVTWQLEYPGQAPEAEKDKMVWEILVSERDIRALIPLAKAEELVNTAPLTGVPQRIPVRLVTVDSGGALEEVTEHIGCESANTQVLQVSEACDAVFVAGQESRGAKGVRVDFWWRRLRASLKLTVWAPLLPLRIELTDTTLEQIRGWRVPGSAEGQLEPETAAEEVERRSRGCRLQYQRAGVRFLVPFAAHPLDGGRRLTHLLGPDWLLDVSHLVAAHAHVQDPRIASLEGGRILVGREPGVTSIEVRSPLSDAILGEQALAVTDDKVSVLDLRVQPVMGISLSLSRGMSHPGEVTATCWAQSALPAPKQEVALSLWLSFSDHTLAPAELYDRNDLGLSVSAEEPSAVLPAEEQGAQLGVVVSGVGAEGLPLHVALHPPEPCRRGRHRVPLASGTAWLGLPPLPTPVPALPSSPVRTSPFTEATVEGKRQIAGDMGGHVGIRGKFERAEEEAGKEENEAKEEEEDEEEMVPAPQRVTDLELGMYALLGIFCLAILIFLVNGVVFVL


How the values were obtained:
Test in all cases: co-IP; HEK 293T cells transiently transfected with tagged constructs (or endogenous partner); lysis in 50 mM Tris-HCl pH 8.0, 150 mM NaCl, 10% glycerol, 1 mM EDTA, 1% DDM or 0.5% NP-40; anti-Flag M2, anti-c-Myc or anti-HA magnetic beads; Western blot; in Figure 6D with or without overexpressed TMEM132A
[1] = target: T1, Flag-tagged full-length TMEM132A (FL T132A-Flag) (mouse)
[2] = target: T2, FL Myc-tagged WLS (WLS-Myc) (mouse)
[3] = target: T3, STC truncation of T132A-Flag (mouse)
[4] = target: T1, Flag-tagged full-length TMEM132A (FL T132A-Flag) (mouse); remark: listed apart in the source
[5] = target: T4, SNT truncation of T132A-Flag (mouse)

Row | Molecule | binding [1] | binding [2] | binding [3] | binding [4] | binding [5]
1 | HA-tagged WNT3A (FL WNT3A-HA) (from UniProt P27467 19-352) (ligand) | binds | binds | – | – | –
2 | HA-tagged full-length TMEM132A (FL T132A-HA) (protein, UniProt Q922P8 33-1018) NHDTLDPIYLPVALELLDAPEHFRVQQVGHYPPANSSLASRSETFLLMQPWPRAQPLLRASYPPFATQQVVPPRVTEPHRRPVPWDVRAVSVEAAVTPAEPYARVLFHLKGQDWPPGPGSLPCARLHATHPAGTAHRACRFQPSLGACVVELQFPSHWFSQSATTRAELAYTLEPAGEGPGGCGLGTEEEPREQALPVGGVELHPEDPPQYQEVPLDEAVTLRAPDVPMRPGQLFTATLLLRHNFTASLLTLRIKVKKGLQVIAARPAQPTLWTAKLDRFKGSKHHTSLITCHRAGPAGPDSSPLELSEFLWVDFAVENSTGGGVAVTRPVTWQLEYPGQAPEAEKDKMVWEILVSERDIRALIPLAKAEELVNTAPLTGVPQRIPVRLVTVDSGGALEEVTEHIGCESANTQVLQVSEACDAVFVAGQESRGAKGVRVDFWWRRLRASLKLTVWAPLLPLRIELTDTTLEQIRGWRVPGSAEGQLEPETAAEEVERRSRGCRLQYQRAGVRFLVPFAAHPLDGGRRLTHLLGPDWLLDVSHLVAAHAHVQDPRIASLEGGRILVGREPGVTSIEVRSPLSDAILGEQALAVTDDKVSVLDLRVQPVMGISLSLSRGMSHPGEVTATCWAQSALPAPKQEVALSLWLSFSDHTLAPAELYDRNDLGLSVSAEEPSAVLPAEEQGAQLGVVVSGVGAEGLPLHVALHPPEPCRRGRHRVPLASGTAWLGLPPLPTPVPALPSSPVRTSPFTEATVEGKRQIAGDMGGHVGIRGKFERAEEEAGKEENEAKEEEEDEEEMVPAPQRVTDLELGMYALLGIFCLAILIFLVNGVVFVLRYQRKEPPDSATDPASPQPHNWVWLGTNQEELSRQLDRCSSSGPPKGEGGCPCESGAGGDASTVAPSASESPAGSSSTLARKEAGGRRKRVEFVTFAPAPPTQPPEEPVGAPAVQSILVAGEEDIRWVCEDMGLKDPEELRNYMERIRGSS | – | – | no binding | binds | binds
